About 210 (0.4%) of roughly 52,000 sequences were called active.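 The calls were made as follows: active = gene whose silencing raises cell survival under the drug, median off-target-corrected z-score across its silencing RNAs 2 or more; inactive = the rest.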 Some of the results follow.
assay: Resistance to Poly (ADP-Ribose) Polymerase inhibitor: Gene Identification via Genome-wide siRNA Screen; conditions: mouse BRCA2 R2336H ES cells, olaparib, CellTiter-Glo viability; stronger effect = higher value
Method in brief: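 Genome-wide siRNA screen (3 siRNAs/gene, 20 nM) in mouse ES cells carrying hypomorphic BRCA2 R2336H; olaparib 500 nM added 48 h post-transfection, CellTiter-Glo viability 72 h later. Normalized to plate-median negative control; MAD z-scores, gene median, seed-adjusted.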

Sequence	z-score
GGAUUCACGUAAGAUUGACTT against Prlpb	inactive: 1.33
GGACCUGAUCUUCAGGUUUTT against Gpc5	inactive: -0.698
GGUUGAUGUGCUACAAGUCTT against 9130221D24Rik	inactive: -0.351
GCAUGAACGACCCGCUGAATT against 2610014F08Rik	inactive: 2.11
GGAAGAAGUCUGGAGGAUGTT against 1010001D01Rik	inactive: 1.06
GGGAUAUCAAAGCAAAAAUTT against Rab8a	inactive: 1.14
CGUGACGUAUCUGUGGUCATT against Siat8d	inactive: 0.531
GGCCAGACACCAACAGAAATT against Adam23	inactive: 0.465
GCCUAUCUACUGACCUUUGTT against 1700011C14Rik	inactive: 0.252
GGAGUCCUUUCGUUCUAUCTT against Rab2	inactive: -0.369
GGUACUGGACCAAAUUGCUTT against Ppp1r15b	inactive: -0.689
GGAAUUCCAUUUUCAGAAATT against 4932412H11Rik	inactive: -0.324
GGACAGGAGAGUUAUUUAATT against Btla	inactive: 0.673
GGAUGCUGUUUCCAAAGAATT against Ssr3	inactive: 0.153
GCCACUAAGAAUCAGACAUTT against Ryr1	inactive: 0.856
GGCUUUUGAUCUUAUUGAGTT against Kpna1	inactive: -0.222
CCUCAAUGGUAGGUAAUUUTT against Olfr1090	inactive: -1.99
GCUCAAGUUAAUCUGUUGUTT against Ywhae	inactive: -0.698
GCUUGAAUACCAUCAGUCATT against BC060737	inactive: -1.43
GCUUACAGCACAACAACAUTT against Ubap1	inactive: -1.61
CCGCACAGACCAUAGUAGATT against 1700121L12Rik	inactive: 0.0169
CCUGACCAUACUAAUAAAUTT against Rala	inactive: 2.13
GGGUCUAGCAGAUUACAAATT against Gjb6	inactive: 0.0867
GGGAAUUUGGUAUCAAUUUTT against Epgn	inactive: 2.77
GGCAGGCAAACAGUGAUCATT against Lsm4	inactive: -2.56
GCUUAGUAAUGCUAACAUUTT against Parg	inactive: 2.29

Sequence	z-score
GGCACUACCACAAGUAUAGTT against 1700073E17Rik	inactive: -1.94
CGAGGCCUGGAAGGACUUUTT against Klhl8	inactive: -0.511
GUUUCAAAUCCCAGAGAAGTT against Defb7	inactive: 0.17
CCUACAUCAAUAGGAGUUUTT against 2810457I06Rik	inactive: 1.92
GGGUCAAAGUCAGACUAUGTT against 2610019P18Rik	inactive: 0.639
CCAUAGUUGAUGGAAGAUATT against 3110001K24Rik	inactive: 0.409
GCAGACGGUGGCAUAUUCUTT against Rfx4	inactive: -0.0759
GGUCAGACAGAGUCACUGATT against Magea2	inactive: -0.918
GCUUGUUACAGAUGAAUGUTT against Nt5c3	inactive: -0.242
CCCUGAAACCUGAUCGGAATT against 1110025F24Rik	inactive: -0.559
GGUUGCAUCACAGCGUAUATT against Plekhe1	inactive: 0.0124
GGCUCUCAACUAAAGCAGCTT against Ssfa1	inactive: -2.89
GGAGGAAAAUCAGACAGGATT against Olfr1419	inactive: 0.702
GGGUUUGGAAACUACAUUUTT against Phka2	inactive: 0.646
GGUAUAUUGUGCCAGCACATT against Olfr705	inactive: 0.931
GGCAGUUUUGCAUGUGUGATT against 1600021C16Rik	inactive: -1.13
UGUUACUGGACUCUCCACATT against Olfr320	inactive: -1.3
GCCCUAGAUCAGGAGAUCATT against Rps17	inactive: -2.58
GGACCACUCGCUUUUGGGUTT against 6430527G18Rik	inactive: 0.813
GGACUUAGGUUUGUUUAAATT against Frat1	inactive: 0.466
GGAGGAAACUAUUAUGACATT against BC043118	inactive: 0.211
GGAAUUGUGCUGAAAAAGATT against 9130011J15Rik	inactive: -0.135
CCACCUCAAGUCAAAGACUTT against Cggbp1	inactive: -0.394
CCUUGAUACCUUUCCAUGUTT against 9130008F23Rik	inactive: 2.13
GCUACGUUCAGUUCCAUUGTT against LOC219026	inactive: -0.543
CGAACUGAAGGUUUUCAAUTT against D2Ertd750e	inactive: -0.917

Some values from the results shown:
z-score, UGUUACUGGACUCUCCACATT against Olfr320 reads inactive: -1.3
z-score, GGCAGUUUUGCAUGUGUGATT against 1600021C16Rik reads inactive: -1.13
z-score, CGAGGCCUGGAAGGACUUUTT against Klhl8 reads inactive: -0.511
z-score, GGCUCUCAACUAAAGCAGCTT against Ssfa1 reads inactive: -2.89
z-score, CCUACAUCAAUAGGAGUUUTT against 2810457I06Rik reads inactive: 1.92
z-score, GCUUGUUACAGAUGAAUGUTT against Nt5c3 reads inactive: -0.242

Remaining list, next part

Sequence	z-score
GGUCGUCGUGAGAUCUUAUTT against Gpr10	inactive: -0.402
GGACCAAACGAUUUCUCACTT against Olfr284	inactive: 0.047
UGUUGUUUUACCUGUGCCUTT against LOC330776	inactive: 1.32
GCCUUAAUUUAUCCGAAAGTT against 2810413I22Rik	inactive: 2.34
GGGAAAAAGAAAGCCCUUGTT against Olfr706	inactive: 0.0739
GCCCAUACUUCCUCUUUGATT against 9330128H10Rik	inactive: -0.513
GGAAAAGAAGACAUUUCUCTT against Osbpl8	inactive: 0.399
GGGAAAGGAUUUUUACAUUTT against Ctdsp1	inactive: 0.709
GGAUAUUACACCUACUUCUTT against Mmp24	inactive: -0.499
GGGUUUGAAUGUUAUGACATT against 4930507C10Rik	inactive: -0.813
GGAACCAAUCCAUAUUUGATT against Tnks	inactive: 0.105
GGACGCAUGAUGUGGGUUCTT against 5730578N08Rik	inactive: -0.754
CGGAUUCAGACCAAUUGGUTT against Hkr2	inactive: 0.0697
GCUCCACCAAACUAAUGCGTT against Polrmt	inactive: 0.848
CCAUAGACUUCAUUGUACATT against Lipf	inactive: 1.1
CCACUCAAUCCUUAGCAAGTT against Abi2	inactive: 0.352
GCUGUGGAACUUAUGUUUUTT against 6230409E13Rik	inactive: -0.139
GGAUACAGAAGGUUUUCUUTT against Abcd4	inactive: 0.129
CCCAGCUCAGGUUUCUAUGTT against Dact2	inactive: 0.315
GCCGAUGUCAGUGGUUAAATT against Bmx	inactive: 0.0782
GCAUAGUUCAGAUUUACAGTT against Zfp27	inactive: -0.178
UACAGGGUUAGCUCAUCACTT against LOC382243	inactive: -1.54
GCUAGACCAGAAGAAAGUATT against 2310003C23Rik	inactive: -0.974
CGAUGGGUUGUAUGAGACCTT against Fut10	inactive: 1.42
GGAUUAUUCCCAGUAUGAGTT against Krt1-23	inactive: -1.21
GCUUUCAUAGAAUCUUGGCTT against Rnf24	inactive: -0.646

Sequence	z-score
GGCAGAGGAAAUCAUGAAGTT against Clpp	inactive: 0.653
GGAAGAGGAAGAUAUUGAUTT against Bbx	inactive: 0.746
GGUCAAGAGGAAGGAGCCATT against BC035291	inactive: -2.59
CGUAGUAGCCACGUCUACUTT against 1810022C23Rik	inactive: -1.84
CCACCACCUAUUACAAUGATT against Lcn5	inactive: 0.184
GCGUGUCACGUUCCCAUCUTT against BC024868	inactive: 1.05
GCGAACUCAAGCUGUAACCTT against Grhpr	inactive: -0.695
GGAAGCUGUCCAAAAUGAGTT against Hnf4a	inactive: -0.101
GGCUGUAUCCUGACAGCAATT against Olfr244	inactive: 0.191
GGACAACGUGGACUACUGGTT against Pcdh15	inactive: -0.904
GGCAAUCUACUCAUUGUUGTT against Olfr1239	inactive: 0.506
GGUGGUAAAAGAUACGACCTT against Atp6v1e1	inactive: -0.805
GGAGAUGAAGAGGUUGGUUTT against Olig3	inactive: -0.366
CCCUAUGUUCUUUGUCUAUTT against Dbccr1	inactive: 0.316
GCUCAAUGCAGAAGGACGGTT against 1700058C13Rik	inactive: -0.383
CCAUAGCUGAUACUGAUGCTT against 2210421G13Rik	inactive: -0.638
GGGCUUGUGGCUUUAGUAUTT against AI836003	inactive: -1.52
GAACGACACAAGGCCUUCATT against Olfr585	inactive: 1.99
GGUUUUCCUAAACUCUUGATT against Usp6nl	inactive: -0.1
GCCCGUGUGUAAGUGCAAATT against AY100450	inactive: 0.989
GGAACACCUACAGUAUAAATT against G431001I09Rik	inactive: 0.325
GGACCCAUGAGGUUAACUUTT against D15Ertd781e	inactive: -1.18
GGACUCUGAAACCAUUAAATT against Fmo4	inactive: -1.21
GGGCAUUAAAGAAUCCAUUTT against Olfr1008	inactive: 0.722
GGCUGAAAACAUCGUGGUCTT against Sncg	inactive: 0.792

Source: PubChem BioAssay AID1347423 (Functional Genomics Laboratory (NCATS/FGL), 2020)
